# Experimental data published in patent US8124365B2, “Identification of genotype-selective anti-tumor agents” (Whitehead Institute for Biomedical Research, priority 2003, dated 2012).
# “Also recorded” adds a separate entry of the source. At least one structure is not confirmed: it was looked up by name or label, or the drawing left a doubt.
# Columns and labels:
# Assay type in all cases: cell-based, human
# [1] = system: BJ-TERT/LT/ST/RAS^V12 cells; experiment: Calcein AM viability assay, dilution series, BJ-TERT/LT/ST/RAS^V12 tumorigenic cells; conditions: ST- and RAS^V12-dependent
# Experimental: Described here is work carried out to identify compounds with increased potency or activity in the presence of hTERT, LT, ST, E6, E7 or RAS^V12. […] The primary screen tested (in quadruplicate) the effect of treating tumorigenic […], corresponding to 10 μM for a compound with a molecular weight of 400, which is the approximate median molecular weight of the libraries. […] In live cells, calcein AM is cleaved by intracellular esterases, forming the anionic fluorescent derivative calcein, which cannot diffuse out of live cells. […] The IC50 value (concentration required to inhibit 50% of the calcein AM signal) was calculated for each compound in each cell line (Table 1).
# Calcein acetoxylmethyl ester (AM) is a cell membrane-permeable, non-fluorescent compound that is cleaved by intracellular esterases to form the anionic, cell-impermeable, fluorescent compound calcein. Viable cells are stained by calcein because of the presence of intracellular esterases and because the intact plasma membrane prevents fluorescent calcein from leaking out of cells (Wang et al., 1993, supra). […] Total fluorescence intensity in each well was recorded on a Packard Fusion platereader, and converted to a percent inhibition of signal by subtracting the instrument background and dividing by the average signal obtained when cells were not treated with any compound. […]
# TIP5/TERT/E6/E7 cells = experiment: Calcein AM viability assay, dilution series, TIP5/TERT/E6/E7 cells
# [2] = system: BJ-TERT/LT/ST/RAS^V12 cells; experiment: Nuclear morphology assay; conditions: fluorescence microscopy, 9 μM erastin or 1.1 μM camptothecin, 18 hours
# Experimental: 200,000 tumorigenic BJ-TERT/LT/ST/RAS^V12 cells were seeded in 2 mL on glass coverslips in each well of a six-well dish, treated with nothing (NT), 9 μM erastin or 1.1 μM camptothecin (CPT) in growth medium for 18 hours while incubating at 37° C. with 5% CO2. Nuclei were stained with 25 μg/mL Hoechst 33342 (Molecular Probes) and viewed using an oil immersion 100× objective on a fluorescence microscope.
# caspase 3 = experiment: Western blot for active, cleaved caspase 3; conditions: lysates of treated BJ-TERT/LT/ST/RAS^V12 cells
# Experimental: BJ-TERT/LT/ST/RAS^V12 cells were seeded prior to the experiment at 5×10^5 cells in 60 mm dishes. The cells were treated with 5 μg/ml erastin (9 μM) for 2, 4, 6, 8 or 10 hours. One dish was maintained for camptothecin treatment (0.4 μg/ml for 24 h) as a positive control. Cells were lysed after each time point in lysis buffer (50 mM HEPES KOH pH 7.4, […], 2 mM EDTA, 0.5% Triton X-100, 1.5 mM Na3VO4, 50 mM NaF, 10 mM sodium pyrophosphate, 10 mM sodium beta-glycerophosphate and protease inhibitor tablet (Roche)). Protein content was quantified using a Biorad protein assay reagent. Equal amounts of protein were resolved on 16% SDS-polyacrylamide gel. The electrophoresed proteins were transblotted onto a PVDF membrane, blocked with 5% milk and incubated with anti-active caspase-3 polyclonal antibody (BD Pharmingen) at 1:1500 dilution overnight at 4° C. The membrane was then incubated in anti-rabbit-HRP (Santa Cruz Biotechnology) at 1:3000 dilution for 1 hour and developed with an enhanced chemiluminescence mixture (NEN life science, Renaissance). To test for equivalent loading in each lane, blots were stripped, blocked, and probed with an anti-eIF-4E antibody (BD Transduction laboratories) at 1:1000 dilution.
# [3] = system: BJ-TERT/LT/ST/RAS^V12 cells; experiment: DNA fragmentation (DNA ladder formation)
# reactive oxygen species = experiment: ROS analysis, flow cytometry using H2DCF-DA; conditions: engineered cells
# Description: 2′7′ dichlorodihydrofluorescein diacetate (H2DCF-DA) is a non-fluorescent cell permeable compound. The endogenous esterase enzyme inside the cell cleaves the diacetate part, and it can no longer pass out of the cell. Thus it accumulates in the cell. Then H2DCF reacts with ROS to form fluorescent dichlorofluorescene (DCF) which can be measured by flow cytometry in FL1 channel. • 1. Seed cells at 3×10^5 cells per dish in 60 mm dishes and allow to grow overnight. • 2. Treat with the test compound for different period of time (1-10 hr). • 3. Maintain one dish for untreated cells, compound treated cell and positive control dish (hydrogen peroxide treated) for each time point. • 4. Incubate the cells with 10 μM of H2DCF-DA for 10 minutes at 37° C. • 5. For positive control cells, after 5 minutes of H2DCF-DA loading, add 500 μM of hydrogen peroxide and incubate for 5 minutes further. • 6. Harvest the cell by trypsinization. • 7. Wash with cold PBS-twice. • 8. Resuspend the pellet in 100 μl of PBS and transfer into 5 ml FACS tube. • 9. Add 5 μl of propidium iodide (50 μg/ml) and incubate for 10 minutes on ice in dark. • 10. Add 400 μl of PBS and analyze by flow cytometry (Becton-Dickinson). • 11. Acquire the data and analyze using CellQuest software program. • 12. […]
# [4] = system: cells lacking RAS^V12 and ST; experiment: Erastin viability effect on cells lacking RAS^V12 and ST; conditions: higher concentrations, longer treatments
# [5] = system: BJ-TERT/LT/ST/RAS^V12 cells; experiment: Trypan Blue exclusion; conditions: erastin for 18 hours
# [6] = system: BJ-TERT/LT/ST/RAS^V12 cells; experiment: Mitochondrial membrane potential, potentiometric dye JC-1; conditions: erastin for 18 hours
# [7] = system: BJ-TERT/LT/ST/RAS^V12 cells; experiment: Cell size measurements, Coulter Counter; conditions: erastin-treated BJ-TERT/LT/ST/RAS^V12 cells
# [8] = system: BJ-TERT/LT/ST/RAS^V12 cells; experiment: Recovery after replating in erastin-free medium; conditions: erastin for 24 hours, then replated in erastin-free medium
compound,measurement,setting,value
"CCOc1ccccc1-n1c(C(C)N2CCN(C(=O)COc3ccc(Cl)cc3)CC2)nc2ccccc2c1=O (centres unmarked) [Erastin, erastin]","time to irreversible, non-apoptotic cell death",[1],12 to 24 h
same,activity in cells lacking RB function (via expression of E7),TIP5/TERT/E6/E7 cells,is not
same,"nuclear morphology (karyorhexis, margination of chromatin)",[2],no such morphological alternation was visible
same,activated (cleaved) caspase 3,caspase 3,not erastin-treated
same,DNA fragmentation (formation of a DNA ladder),[3],not erastin
same,formation of reactive oxygen species,reactive oxygen species,induces the formation of reactive oxygen species
same,effect on viability of cells lacking RAS^V12 and ST,[4],little effect on the viability; also recorded: failed to kill cells lacking RAS^V12 and ST
same,exclusion of the vital dye Trypan Blue,[5],failed to exclude the vital dye Trypan Blue
same,mitochondrial membrane potential (JC-1),[6],displayed a loss of mitochondrial membrane potential
same,cell size,[7],small cell size characteristic of dead cells
same,reversibility of loss of viability,[8],unable to recover when replated in erastin-free medium
